According to the supplement of paper PMC12872613:
Structures can show the parent of a compound that is named as a salt. The list shows a part of the results. No stated cut-off is given here; in the data, active = 0.7 or more and inactive = the rest. Single values are uncertain, as repeats are few or missing.

What follows are compounds tested on MiaPaCa-2 CLSA-25 (assay: cell death relative to DMSO vehicle (fraction); higher = more cytotoxic). Settings: 5 µM; treatment time 48 h; medium cystine 25 µM.
For `Cc1ncc(C[n+]2csc(CCOP(=O)(O)OP(=O)(O)O)c2C)c(N)n1` [Thiamine pyrophosphate], the cell death was inactive: 0.0372.
With `C[C@H]1O[C@H](O[C@H]2[C@H](O)[C@@H](O)[C@@H](O[C@H]3[C@H](O)[C@@H](O)C(O)O[C@@H]3CO)O[C@@H]2CO)[C@H](O)[C@@H](O)[C@@H]1N[C@H]1C=C(CO)[C@@H](O)[C@H](O)[C@H]1O` (stereo not given in full) [Acarbose] the cell death was inactive: 0.145.
With `CCOC(=O)C1=C[C@]2(CC)CCCN3CCc4c(n1c1ccccc41)[C@@H]32` [Vinpocetine] the cell death was inactive: 0.077.
For `Cc1ccc(S(=O)(=O)NC(=O)NN2CC3CCCC3C2)cc1` (stereo not given) [Gliclazide], the cell death was inactive: 0.362.
In the case of `O=c1c(-c2ccc(O)cc2)coc2cc(O[C@@H]3O[C@H](CO)[C@@H](O)[C@H](O)[C@H]3O)ccc12` [Daidzin], the cell death is reported as inactive: -0.00054.
In the case of `CC[C@H](CC[C@@H](C)[C@H]1CC[C@H]2[C@@H]3CC=C4C[C@@H](O[C@@H]5O[C@H](CO)[C@@H](O)[C@H](O)[C@H]5O)CC[C@]4(C)[C@H]3CC[C@]12C)C(C)C` [Sitogluside], the cell death is reported as inactive: 0.686.
With `Cc1c(NC(=O)c2cc(C(N)=O)nc3cc(F)ccc23)c(C(F)(F)F)nn1Cc1ccc(C#N)cc1` the cell death was active: 0.79.
`CC(O)c1ccc(S(=O)(=O)NC(=O)NC2CCCCC2)cc1` (stereo not given) [Hydroxyhexamide] was tested, and the cell death was inactive: 0.0235.
For `O=c1c(-n2ccnn2)c[nH]n1-c1cc(N2CCOCC2)ncn1` [Molidustat], the cell death was inactive: 0.167.
`COc1cc(OC)c(CCC(=O)c2ccc(O)cc2)c(OC)c1` [Loureirin B] was tested, and the cell death was inactive: 0.199.
`O=C1C[C@@H](c2ccc(O)cc2)Oc2cc(O)cc(O)c21` [Naringenin] was tested, and the cell death was inactive: 0.0142.
`c1cc(-c2cnn3cc(-c4ccc(OCCN5CCCCC5)cc4)cnc23)ccn1` [Dorsomorphin dihydrochloride] was tested, and the cell death was inactive: 0.561.
`O=C(O)c1cc(=O)[nH]c(=O)[nH]1` [Orotic acid] was tested, and the cell death was inactive: 0.084.
`Cc1nc(C(=O)NCC(=O)O)c(O)c2ccc(Oc3ccccc3)cc12` [Roxadustat] was tested, and the cell death was inactive: 0.189.
With `Nc1cccc(S(=O)(=O)N2CCCN(S(=O)(=O)c3ccc4c(c3)OCCO4)CC2)c1` the cell death was inactive: 0.128.
For `O=C(c1ccc(OCCN2CCCCC2)cc1)c1c(-c2ccc(O)cc2)sc2cc(O)ccc12` [Raloxifene hydrochloride], the cell death was inactive: 0.269.
`Cc1cc(SCc2sc(-c3ccc(C(F)(F)F)c(F)c3)nc2C)ccc1OCC(=O)O` was tested, and the cell death was inactive: 0.00183.
`O=C(O)CN1C(=O)c2cccc3cccc(c23)C1=O` [Alrestatin] was tested, and the cell death was inactive: 0.182.
For `C[C@]12C[C@H](O)[C@H]3[C@@H](CCC4=CC(=O)CC[C@@]43C)[C@@H]1CC[C@@H]2C(=O)CO` [Corticosterone], the cell death was inactive: 0.0784.
`CC(C)NNC(=O)c1ccncc1` [Iproniazid Phosphate] was tested, and the cell death was inactive: -0.00348.
`Cn1c(=O)cc(N2CCC[C@@H](N)C2)n(Cc2cc(F)ccc2C#N)c1=O` [Trelagliptin succinate] was tested, and the cell death was inactive: 0.0792.
In the case of `CC1=C(O)C(=O)C=C2C1=CC=C1[C@@]2(C)CC[C@@]2(C)[C@@H]3C[C@](C)(C(=O)O)CC[C@]3(C)CC[C@]12C` [Celastrol], the cell death is reported as active: 0.925.
`CC(S)C(=O)NCC(=O)O` (stereo not given) [Tiopronin] was tested, and the cell death was inactive: 0.182.
In the case of `Cc1cc(O)c2c(c1)C(=O)c1cc(O)cc(O)c1C2=O` [Emodin], the cell death is reported as inactive: 0.108.
With `O=C1S/C(=C\c2ccc(OCc3cccc(B(O)O)c3)cc2)C(=O)N1Cc1ccc(F)cc1` the cell death was active: 0.814.
`COc1ccc(CN2CCNCC2)c(OC)c1OC` [Trimetazidine dihydrochloride] was tested, and the cell death was active: 0.833.
`O.O.O.O.O=C([O-])CC(O)(CC(=O)[O-])C(=O)[O-].[Li+].[Li+].[Li+]` [Lithium citrate tribasic tetrahydrate] was tested, and the cell death was inactive: 0.168.
`CC(C)=CCC/C(C)=C/CC/C(C)=C/CC/C(C)=C/CC1=C(C)C(=O)c2ccccc2C1=O` [Menatetrenone] was tested, and the cell death was inactive: 0.114.
With `O=S(=O)(CC1CS1)c1ccc(Oc2ccccc2)cc1` (stereo not given) the cell death was inactive: 0.163.
With `CCC(=O)O[C@@H](O[P@](=O)(CCCCc1ccccc1)CC(=O)N1C[C@H](C2CCCCC2)C[C@H]1C(=O)O)C(C)C` [Fosinopril sodium] the cell death was inactive: 0.16.
